For some assays here: At least one peptide structure holds a part that was inferred or is arguable (an end, a ring closure or a residue). Some of these results come from one statement about several compounds together. *1 amine or outer side, *2 acyl side, *3 side chain or, on linkers, in order; H or OH if unused. Where a SMILES comes first, the peptide text is derived from it. Where no end group is shown, it is not given here. [ ]: non-standard residue; d: D form. The star is where a group is joined. LeuΨ(S-CHOHCH2)Ala = CC(C)C[C@H](N[*:1])[C@@H](O)C[C@@H](C)C(=O)[*:2]; 5FAM = O=C1OC2(c3ccc(O)cc3Oc3cc(O)ccc32)c2ccc(C(=O)*)cc21; Ahx = NCCCCCC(=O)O
Key:
[1] = system: plasma Aβ40; assay: Inhibition of Aβ production in transgenic mouse model of Alzheimer's disease (plasma Aβ40 ELISA); assay type: in vivo, APP/F mice; conditions: single injection
Procedure: Compounds MMI-138, MMI-165, and MMI-185 were synthesized as described above. Compounds were dissolved in 1 ml of dimethyl sulfoxide (DMSO) to a final concentration of about 1 mg/ml for MMI-165 and MMI-185, and about 10 mg/ml for MMI-138. […] Inhibitors were diluted into PBS or H2O immediately prior to injection, as described below. Inhibition constants were determined by methods described by Ermolieff, et al. (Biochem. 39:12450-12456 (2000), the teachings of which are incorporated hereby in their entirety).
The tg2576 strain of mice was obtained from Taconic (Germantown, N.Y.). The APP/F strain of mice were obtained by mating the tg2576 mice with the FVB/N strain. To determine presence of the Swedish APP gene in APP/F mice, the DNA from mice was isolated according to the Qiagen Dneasy™ Tissue Kit. PCR (Qiagen kit and protocol) was used to amplify the fragment of DNA corresponding to the human Swedish APP gene. The following primers were used: […]
At the age of three months, animals of the Alzheimer's disease mouse model APP/F were injected intraperitoneally (i.p.) with about 163 nanomoles of either compounds MMI-138 (molecular weight 674 g/mole; 110 μg per animal, n=2), MMI-165 (molecular weight 626 g/mole; 102 μg per animal, n=2), or MMI-185 (molecular weight 686; 112 μg per animal, n=2).
Heparinized capillary tubes collected blood samples from anesthetized animals from either the retro-orbital sinus or from the saphenous vein at specified intervals following injection. […]
A sandwich ELISA (BioSource International, Camarillo, Calif.) was used to determine the levels of Aβ40 in plasma samples. […] A conjugated secondary antibody was used to detect the ternary complex, using a stabilized chromogen substrate, quantifiable following addition of 1 M HCl, with the optical densities measured at 450 nm. […] Optical densities were converted to pg/ml quantities of Aβ40 using a linear regression of the optical densities of standards obtained from the commercial kit, to their known concentrations.

By UniProt entry, the sequences of proteins in these tests, tags left out. Residues count along the entry.
UniProt P56817, 41-454 limits assumed: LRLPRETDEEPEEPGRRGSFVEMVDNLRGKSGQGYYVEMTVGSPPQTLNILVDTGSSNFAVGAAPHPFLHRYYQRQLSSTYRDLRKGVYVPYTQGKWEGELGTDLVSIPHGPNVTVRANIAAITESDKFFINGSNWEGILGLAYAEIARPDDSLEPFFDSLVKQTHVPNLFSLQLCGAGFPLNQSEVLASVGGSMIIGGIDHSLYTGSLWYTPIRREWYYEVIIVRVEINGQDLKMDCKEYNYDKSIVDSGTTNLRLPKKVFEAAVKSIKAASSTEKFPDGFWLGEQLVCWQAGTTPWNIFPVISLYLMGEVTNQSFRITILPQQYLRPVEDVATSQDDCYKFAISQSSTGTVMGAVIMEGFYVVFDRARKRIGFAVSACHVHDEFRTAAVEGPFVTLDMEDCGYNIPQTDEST

[2] = biological target: T1, memapsin 2 (Homo sapiens, UniProt P56817); assay: Kinetic parameters Km and kcat of single peptide substrates with memapsin 2; assay type: biochemical; conditions: substrate cleavage by memapsin 2
T1 construct: pET-11 vector-derived residues 1-15 of promemapsin 2-T1 (N, cleaved yes); made in house; host or cells: E. coli

[3] = system: HEK 293 cells transfected with sw APP and memapsin 2 (293-D cells); assay: Inhibition of Aβ secretion from cultured cells by conjugated inhibitor (35S labelling, immunoprecipitation); assay type: cell-based, human; conditions: 293-D cells treated with 10 pmole CPI-2

Molecule | Time plasma β-amyloid protein levels remained decreased [1] [h] | further results
CSCC[C@H](NC(=O)OCn1nc(C)cc1C)C(=O)N[C@@H](CC(C)C)[C@@H](O)C[C@@H](C)C(=O)N[C@H](C(=O)NC(C)C)C(C)C [MMI-165] | > 150 | 
COCC[C@H](NC(=O)[C@H](CC(C)C)NC(=O)OC(C)(C)C)C(=O)N[C@@H](CC(C)C)[C@@H](O)C[C@@H](C)C(=O)N[C@@H](CC(C)C)C(=O)NC(C)C [MMI-185] | > 150 | 
CSCC[C@H](NC(=O)OCn1nc(C)cc1C)C(=O)N[C@@H](CC(C)C)[C@@H](O)C[C@@H](C)C(=O)N[C@H](C(=O)NCc1ccccc1)C(C)C [MMI-138] | > 150 | 
EVNLAAEFWHDR |  | kcat [2]: 274 ± 23 s⁻¹
CC(C)C[C@H](NC(=O)[C@H](CCC(=O)O)NC(=O)CCCCCNC(=O)c1ccc2c(c1)C(=O)OC21c2ccc(O)cc2Oc2cc(O)ccc21)C(=O)N[C@@H](CC(=O)O)C(=O)N[C@@H](CC(C)C)[C@@H](O)C[C@@H](C)C(=O)N[C@H](C(=O)N[C@@H](CCC(=O)O)C(=O)N[C@@H](Cc1ccccc1)C(=O)NCC(=O)NCC(=O)N[C@H](CCCNC(=N)N)C(=O)N[C@H](CCCNC(=N)N)C(=O)N[C@H](CCCNC(=N)N)C(=O)N[C@H](CCCNC(=N)N)C(=O)N[C@H](CCCNC(=N)N)C(=O)N[C@H](CCCNC(=N)N)C(=O)N[C@H](CCCNC(=N)N)C(=O)N[C@H](CCCNC(=N)N)C(=O)N[C@H](CCCNC(=N)N)C(=O)O)C(C)C [CPI-2] ({5FAM-Ahx}-ELD[LeuΨ(S-CHOHCH2)Ala]VEFGG[dR][dR][dR][dR][dR][dR][dR][dR][dR]-OH) |  | Inhibition of Aβ (35S intensity of bands by phosphorimaging) [3]: over 95%

From patent US20040121947A1, “Compounds which inhibit beta-secretase activity and methods of use thereof” (Oklahoma Medical Research Foundation, priority 2000, published 2004)
